From PMC10834429, “HRDE-2 drives small RNA specificity for the nuclear Argonaute protein HRDE-1” (Nature Communications, 2024)
These are yes or no findings as the source states them, for the method shown. In cells and extracts the contact can be indirect. These calls come from enrichment with a bait or labelling near it, and not all partners need be listed. For some assays here: No binding means not detected with the bait. For some assays here: Where a sequence is shown, tags or fusion partners need not be part of it.

T1: HRDE-2::2xTy1::GFP (C. elegans) (UniProt Q22058)
T1 sequence: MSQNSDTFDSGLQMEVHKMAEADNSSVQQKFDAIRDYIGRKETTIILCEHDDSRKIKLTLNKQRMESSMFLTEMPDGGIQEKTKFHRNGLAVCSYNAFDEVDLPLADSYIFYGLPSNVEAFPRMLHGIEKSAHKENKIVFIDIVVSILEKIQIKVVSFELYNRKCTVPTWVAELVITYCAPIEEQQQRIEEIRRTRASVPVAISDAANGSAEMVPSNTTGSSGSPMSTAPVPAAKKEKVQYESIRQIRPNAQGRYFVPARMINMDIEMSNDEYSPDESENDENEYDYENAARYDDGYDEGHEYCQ

T2: GFP::3xFLAG::HRDE-1(HK-AA) (C. elegans, UniProt Q09249 1-1032, H664A | K668A)
T2 construct: Tag ends are read from the strain notation; Repair template is in Supplementary Data 3; source: C. elegans strain hrde-1(cmp309[HK-AA]) made in hrde-1(tor125[GFP::3xFLAG::hrde-1]), adult animals, in lysate; not shown: GFP, N-terminal, kept; 3xFLAG, N-terminal, kept
T2 sequence (looked up): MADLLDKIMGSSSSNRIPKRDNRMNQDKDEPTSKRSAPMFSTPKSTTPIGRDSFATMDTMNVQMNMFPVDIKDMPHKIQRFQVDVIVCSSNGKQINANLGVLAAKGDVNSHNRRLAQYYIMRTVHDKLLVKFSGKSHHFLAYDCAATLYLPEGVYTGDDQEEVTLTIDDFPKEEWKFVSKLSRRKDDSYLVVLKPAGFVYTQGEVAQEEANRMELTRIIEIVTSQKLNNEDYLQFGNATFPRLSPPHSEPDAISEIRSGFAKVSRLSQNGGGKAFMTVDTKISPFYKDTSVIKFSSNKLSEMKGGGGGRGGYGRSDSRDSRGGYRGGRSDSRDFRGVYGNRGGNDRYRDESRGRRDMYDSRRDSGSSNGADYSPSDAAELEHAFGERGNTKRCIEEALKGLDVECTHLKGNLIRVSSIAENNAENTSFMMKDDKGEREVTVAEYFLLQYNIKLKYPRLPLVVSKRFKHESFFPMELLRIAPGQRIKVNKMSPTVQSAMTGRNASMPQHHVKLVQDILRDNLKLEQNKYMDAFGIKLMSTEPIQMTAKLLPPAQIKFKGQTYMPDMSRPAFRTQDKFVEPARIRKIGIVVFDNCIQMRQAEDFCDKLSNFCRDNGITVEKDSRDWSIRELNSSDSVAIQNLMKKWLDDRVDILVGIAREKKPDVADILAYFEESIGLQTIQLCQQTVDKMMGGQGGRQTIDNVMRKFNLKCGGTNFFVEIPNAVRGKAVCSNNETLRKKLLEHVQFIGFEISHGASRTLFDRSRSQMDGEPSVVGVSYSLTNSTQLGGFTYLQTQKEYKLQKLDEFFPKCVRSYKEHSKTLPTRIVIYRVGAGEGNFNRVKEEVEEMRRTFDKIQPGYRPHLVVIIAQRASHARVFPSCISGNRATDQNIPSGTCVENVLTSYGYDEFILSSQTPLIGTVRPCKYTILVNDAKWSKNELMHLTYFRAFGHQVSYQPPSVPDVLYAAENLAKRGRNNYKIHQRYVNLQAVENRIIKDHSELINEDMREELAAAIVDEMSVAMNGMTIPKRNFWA

T3: SIMR-1::mCherry::2xHA (C. elegans) (UniProt O01477)
T3 sequence: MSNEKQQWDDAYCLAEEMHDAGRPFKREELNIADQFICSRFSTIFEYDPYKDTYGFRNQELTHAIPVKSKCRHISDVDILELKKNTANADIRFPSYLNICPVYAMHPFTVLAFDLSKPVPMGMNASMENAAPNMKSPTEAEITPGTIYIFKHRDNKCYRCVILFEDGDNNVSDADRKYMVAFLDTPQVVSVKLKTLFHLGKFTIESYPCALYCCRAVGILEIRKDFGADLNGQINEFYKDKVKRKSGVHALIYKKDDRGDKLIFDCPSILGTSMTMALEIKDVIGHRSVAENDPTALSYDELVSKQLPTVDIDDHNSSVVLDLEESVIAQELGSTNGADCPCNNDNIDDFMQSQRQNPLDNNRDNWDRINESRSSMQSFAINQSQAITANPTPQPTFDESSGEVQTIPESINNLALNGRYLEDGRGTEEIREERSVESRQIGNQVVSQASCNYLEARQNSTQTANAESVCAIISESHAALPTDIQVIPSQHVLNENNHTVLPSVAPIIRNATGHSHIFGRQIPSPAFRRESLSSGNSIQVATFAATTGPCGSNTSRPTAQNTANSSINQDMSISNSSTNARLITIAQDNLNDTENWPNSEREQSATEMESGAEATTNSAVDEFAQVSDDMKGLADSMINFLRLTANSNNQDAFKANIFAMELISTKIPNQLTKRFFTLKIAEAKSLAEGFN


How the values were obtained:
[1] = molecular target: T1, HRDE-2::2xTy1::GFP (C. elegans); experiment: affinity purification with mass spectrometry; lysate of ~200,000 synchronized adult animals, triplicates; anti-HA beads for SIMR-1::mCherry::2xHA, anti-GFP beads for HRDE-2::2xTy1::GFP; IP buffer 50 mM Tris-Cl pH 7.5, 100 mM KCl, 2.5 mM MgCl2, 0.1% Nonidet P40 substitute; 4 °C, 1 h
[2] = molecular target: T2, GFP::3xFLAG::HRDE-1(HK-AA); experiment: affinity purification with mass spectrometry; IP of HRDE-1 from wild-type, mut-2 mutant and hrde-1(HK-AA) mutant animals; beads not stated for this IP
[3] = molecular target: T3, SIMR-1::mCherry::2xHA (C. elegans); experiment: affinity purification with mass spectrometry; lysate of ~200,000 synchronized adult animals, triplicates; anti-HA beads for SIMR-1::mCherry::2xHA, anti-GFP beads for HRDE-2::2xTy1::GFP; IP buffer 50 mM Tris-Cl pH 7.5, 100 mM KCl, 2.5 mM MgCl2, 0.1% Nonidet P40 substitute; 4 °C, 1 h

Row | binding [1] | binding [2] | binding [3] | Binder
1 | no binding | – | – | SIMR-1 (endogenous, in the HRDE-2::2xTy1::GFP strain) (protein, UniProt O01477 1-691) MSNEKQQWDDAYCLAEEMHDAGRPFKREELNIADQFICSRFSTIFEYDPYKDTYGFRNQELTHAIPVKSKCRHISDVDILELKKNTANADIRFPSYLNICPVYAMHPFTVLAFDLSKPVPMGMNASMENAAPNMKSPTEAEITPGTIYIFKHRDNKCYRCVILFEDGDNNVSDADRKYMVAFLDTPQVVSVKLKTLFHLGKFTIESYPCALYCCRAVGILEIRKDFGADLNGQINEFYKDKVKRKSGVHALIYKKDDRGDKLIFDCPSILGTSMTMALEIKDVIGHRSVAENDPTALSYDELVSKQLPTVDIDDHNSSVVLDLEESVIAQELGSTNGADCPCNNDNIDDFMQSQRQNPLDNNRDNWDRINESRSSMQSFAINQSQAITANPTPQPTFDESSGEVQTIPESINNLALNGRYLEDGRGTEEIREERSVESRQIGNQVVSQASCNYLEARQNSTQTANAESVCAIISESHAALPTDIQVIPSQHVLNENNHTVLPSVAPIIRNATGHSHIFGRQIPSPAFRRESLSSGNSIQVATFAATTGPCGSNTSRPTAQNTANSSINQDMSISNSSTNARLITIAQDNLNDTENWPNSEREQSATEMESGAEATTNSAVDEFAQVSDDMKGLADSMINFLRLTANSNNQDAFKANIFAMELISTKIPNQLTKRFFTLKIAEAKSLAEGFN
2 | – | binds | no binding | HRDE-2::2xTy1::GFP (natural protein, C. elegans, UniProt Q22058 1-305, looked up, HRDE-2 (HRDE-2/ENRI-3), C. elegans, tagged in the worm strain; Tag ends are read from the strain notation HRDE-2::2xTy1::GFP; also called HRDE-2/ENRI-3; source: C. elegans strain hrde-2/enri-3(tag1660[hrde-2/enri-3::2xTy1::GFP]), adult animals, in lysate; not shown: 2xTy1, C-terminal, kept; GFP, C-terminal, kept) MSQNSDTFDSGLQMEVHKMAEADNSSVQQKFDAIRDYIGRKETTIILCEHDDSRKIKLTLNKQRMESSMFLTEMPDGGIQEKTKFHRNGLAVCSYNAFDEVDLPLADSYIFYGLPSNVEAFPRMLHGIEKSAHKENKIVFIDIVVSILEKIQIKVVSFELYNRKCTVPTWVAELVITYCAPIEEQQQRIEEIRRTRASVPVAISDAANGSAEMVPSNTTGSSGSPMSTAPVPAAKKEKVQYESIRQIRPNAQGRYFVPARMINMDIEMSNDEYSPDESENDENEYDYENAARYDDGYDEGHEYCQ
3 | – | – | binds | NRDE-3 (protein, UniProt Q21691 1-1057) MDLLDKVMGEMGSKPGSTAKKPATSASSTPRTNVWGTAKKPSSQQQPPKPLFTTPGSQQGSLGGRIPKREHTDRTGPDPKRKPLGGLSVPDSFNNFGTFRVQMNAWNLDISKMDERISRIMFRATLVHTDGRRFELSLGVSAFSGDVNRQQRRQAQCLLFRAWFKRNPELFKGMTDPAIAAYDAAETIYVGCSFFDVELTEHVCHLTEADFSPQEWKIVSLISRRSGSTFEIRIKTNPPIYTRGPNALTLENRSELTRIIEAITDQCLHNEKFLLYSSGTFPTKGGDIASPDEVTLIKSGFVKTTKIVDRDGVPDAIMTVDTTKSPFYKDTSLLKFFTAKMDQLTNSGGGPRGHNGGRERRDGGGNSRKYDDRRSPRDGEIDYDERTVSHYQRQFQDERISDGMLNTLKQSLKGLDCQPIHLKDSKANRSIMIDEIHTGTADSVTFEQKLPDGEMKLTSITEYYLQRYNYRLKFPHLPLVTSKRAKCYDFYPMELMSILPGQRIKQSHMTVDIQSYMTGKMSSLPDQHIKQSKLVLTEYLKLGDQPANRQMDAFRVSLKSIQPIVTNAHWLSPPDMKFANNQLYSLNPTRGVRFQTNGKFVMPARVKSVTIINYDKEFNRNVDMFAEGLAKHCSEQGMKFDSRPNSWKKVNLGSSDRRGTKVEIEEAIRNGVTIVFGIIAEKRPDMHDILKYFEEKLGQQTIQISSETADKFMRDHGGKQTIDNVIRKLNPKCGGTNFLIDVPESVGHRVVCNNSAEMRAKLYAKTQFIGFEMSHTGARTRFDIQKVMFDGDPTVVGVAYSLKHSAQLGGFSYFQESRLHKLTNLQEKMQICLNAYEQSSSYLPETVVVYRVGSGEGDYPQIVNEVNEMKLAARKKKHGYNPKFLVICTQRNSHIRVFPEHINERGKSMEQNVKSGTCVDVPGASHGYEEFILCCQTPLIGTVKPTKYTIIVNDCRWSKNEIMNVTYHLAFAHQVSYAPPAIPNVSYAAQNLAKRGHNNYKTHTKLVDMNDYSYRIKEKHEEIISSEEVDDILMRDFIETVSNDLNAMTINGRNFWA
4 | binds | – | – | HRDE-1 (endogenous, in the HRDE-2::2xTy1::GFP strain) (protein, UniProt Q09249 1-1032) MADLLDKIMGSSSSNRIPKRDNRMNQDKDEPTSKRSAPMFSTPKSTTPIGRDSFATMDTMNVQMNMFPVDIKDMPHKIQRFQVDVIVCSSNGKQINANLGVLAAKGDVNSHNRRLAQYYIMRTVHDKLLVKFSGKSHHFLAYDCAATLYLPEGVYTGDDQEEVTLTIDDFPKEEWKFVSKLSRRKDDSYLVVLKPAGFVYTQGEVAQEEANRMELTRIIEIVTSQKLNNEDYLQFGNATFPRLSPPHSEPDAISEIRSGFAKVSRLSQNGGGKAFMTVDTKISPFYKDTSVIKFSSNKLSEMKGGGGGRGGYGRSDSRDSRGGYRGGRSDSRDFRGVYGNRGGNDRYRDESRGRRDMYDSRRDSGSSNGADYSPSDAAELEHAFGERGNTKRCIEEALKGLDVECTHLKGNLIRVSSIAENNAENTSFMMKDDKGEREVTVAEYFLLQYNIKLKYPRLPLVVSKRFKHESFFPMELLRIAPGQRIKVNKMSPTVQSAMTGRNASMPQHHVKLVQDILRDNLKLEQNKYMDAFGIKLMSTEPIQMTAKLLPPAQIKFKGQTYMPDMSRPAFRTQDKFVEPARIRKIGIVVFDNCIQMRQAEDFCDKLSNFCRDNGITVEKDSRDWSIRELNSSDSVAIQNLMKKWLDDRVDILVGIAREKKPDVHDILKYFEESIGLQTIQLCQQTVDKMMGGQGGRQTIDNVMRKFNLKCGGTNFFVEIPNAVRGKAVCSNNETLRKKLLEHVQFIGFEISHGASRTLFDRSRSQMDGEPSVVGVSYSLTNSTQLGGFTYLQTQKEYKLQKLDEFFPKCVRSYKEHSKTLPTRIVIYRVGAGEGNFNRVKEEVEEMRRTFDKIQPGYRPHLVVIIAQRASHARVFPSCISGNRATDQNIPSGTCVENVLTSYGYDEFILSSQTPLIGTVRPCKYTILVNDAKWSKNELMHLTYFRAFGHQVSYQPPSVPDVLYAAENLAKRGRNNYKIHQRYVNLQAVENRIIKDHSELINEDMREELAAAIVDEMSVAMNGMTIPKRNFWA
